AC50 data for 60 molecules are collected here from PubChem BioAssay AID493014 (National Center for Advancing Translational Sciences (NCATS), 2011).

This is one part of the list. These are further read-outs of the screen, such as a control signal, another cell line or another target. No call is given for them. The list favours compounds with an active or inconclusive main result. The note in brackets gives the kind of curve behind each potency; many fits are weak.

The nature of the assay: qHTS Assay to Find Inhibitors of Chronic Active B-Cell Receptor Signaling. The conditions noted are these: ABC-DLBCL IkBa-CBG/CBR reporter, luminescence ratio (green luciferase fused to IkBa over red control in TMD8 lymphoma cells), 4 h. A digest of the protocol:
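Cell line TMD8 (human ABC DLBCL), stably expressing tet-inducible CBG68-IkBa fusion and CBR; IMDM/0.5% FBS; cpd up to 46 uM; dox induction, 4 h, 37C/5% CO2; dual luminescence; green/red ratio; MG132 control.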
Background: qHTS replaces the single test concentration by a dilution series.

The mark [1] stands for this setting: measured here: CBR red luminescence, cell number.
The mark [2] stands for this setting: measured here: IkBa-CBG green luminescence.

In the case of `O=C(CCC1COc2ccccc2O1)Nc1ncccc1O` (configuration not stated), the half-maximal activity concentration (AC50) (commonly the midpoint of the concentration-response curve, whichever way the signal moves) under setting [1] is 13 µM [falling, partial curve, poor fit].

On to `COCC(C)NS(=O)(=O)c1ccc(NC(=O)c2ccccn2)cc1` (configuration not stated), for which the concentration at half-maximal activity (AC50) under setting [1] is 6.31 µM [rising, partial curve, poor fit].

Regarding `CCOC(=O)C(C)On1c(-c2cccc(Cl)c2)nc2ccc([N+](=O)[O-])cc21` (configuration not stated), under setting [1], the AC50 was 10.3 µM [falling, partial curve, poor fit].

As to `Cc1ccc(C)c2[nH]c(=O)c(CCNC(=O)c3cc4ccccc4o3)cc12`, the AC50 under setting [1] is 16.4 µM [rising, single point].

Regarding `Cc1ccc(/C=N/NC(=O)CSc2nnc(-c3ccc(Cl)cc3)n2-c2ccccc2)o1`, under setting [1], the half-maximal activity concentration (AC50) is 14.6 µM [falling, partial curve, poor fit].

For the molecule `COc1ccc(/C(N)=N/OC(=O)COc2ccccc2Cl)cc1`, the AC50 under setting [1] was 5.17 µM [rising, full curve, poor fit].

For the molecule `O=c1[nH]c(CN2CCN(S(=O)(=O)/C=C/c3ccccc3)CC2)nc2cc(Cl)ccc12`, under setting [1], the half-maximal activity concentration (AC50) is 12.6 µM [falling, partial curve, poor fit].

Take `Cc1cccc(N(C(=O)Nc2ccc(Cl)cc2)C2=NCC(C)S2)n1` (configuration not stated): the concentration at half-maximal activity (AC50) under setting [1] was 7.94 µM [rising, partial curve, poor fit].

Take `CC(=O)c1cccc(NC(=O)N2CCCC2C(=O)NCc2ccc(F)cc2)c1` (configuration not stated): the half-maximal activity concentration (AC50) under setting [1] is 35.5 µM [rising, single point].

On to `CCCOc1ccc(C(F)(F)F)cc1NS(=O)(=O)c1ccc(Cl)nc1`, for which, under setting [1], the AC50 is 23.1 µM [falling, partial curve, poor fit].

As for `Cn1c(/C(C#N)=C/c2ccc(-c3ccc(S(N)(=O)=O)cc3)o2)nc2ccccc21`, the AC50 was 10.3 µM [falling, partial curve] under setting [1] and 16.4 µM [rising, partial curve, poor fit] under setting [2].

For `COc1cc(/C=N/NC(=O)c2cc(-c3ccccc3OC(C)C)nc3ccccc23)ccc1O`, under setting [1], the AC50 is 29.1 µM [falling, single point].

As for `CCCCCc1nc2sc3c(c2c(=O)n1NC(=O)c1ccc([N+](=O)[O-])cc1)CC(C)(C)OC3`, the AC50 under setting [1] was 14.6 µM [falling, partial curve] and the half-maximal activity concentration (AC50) under setting [2] was 29.1 µM [rising, partial curve, poor fit].

Regarding `Cc1ccc(N/C=C/C(=O)C(C)(C)C)c(O)c1`, the half-maximal activity concentration (AC50) under setting [1] was 18.4 µM [falling, single point].

As to `CCN(C(=O)COC(=O)/C=C/c1cnc2ccccc2n1)C1CCS(=O)(=O)C1` (configuration not stated), the concentration at half-maximal activity (AC50) under setting [1] is 35.5 µM [falling, single point].

`O=C(CN(c1cccc(C(F)(F)F)c1)S(=O)(=O)c1ccc(Cl)c([N+](=O)[O-])c1)NCc1ccccc1Cl`: the concentration at half-maximal activity (AC50) under setting [1] is 20.6 µM [falling, partial curve].

As to `CC(C)c1cc(C(=O)Nc2sc3c(c2C#N)CCC3)no1`, under setting [1], the half-maximal activity concentration (AC50) was 14.1 µM [rising, partial curve].

For `COc1ccccc1C/C(N)=N/OC(=O)COc1cccc(C)c1`, under setting [1], the half-maximal activity concentration (AC50) was 10.3 µM [rising, partial curve, poor fit].

For `C/C(=N\OC(=O)c1cccc(Cl)c1)c1sc(C)nc1C`, the AC50 under setting [1] was 16.4 µM [falling, single point].

For the molecule `O=C(Nc1cccnc1)OC1CCCC1`, the AC50 under setting [1] was 1.58 µM [rising, partial curve, poor fit].

Turning to `CC(=O)Nc1nc2c(s1)C(=O)NCC(C)(C)C2`, the half-maximal activity concentration (AC50) under setting [1] is 1.26 µM [rising, full curve, poor fit].

Take `CCC1=NN(C(=O)C(=O)Nc2ccc(Br)cc2)C(O)(C(F)(F)F)C1` (configuration not stated): the concentration at half-maximal activity (AC50) under setting [1] is 25.1 µM [falling, single point].

In the case of `CC1(C)CC(=O)C(C(C#Cc2ccccc2)C2=C(O)CC(C)(C)CC2=O)=C(O)C1`, the AC50 under setting [1] is 11.2 µM [falling, partial curve].

In the case of `Cc1nn2c(C)c(C(=O)Nc3ccccc3)cnc2c1-c1ccccc1`, the AC50 under setting [1] is 2.82 µM [rising, partial curve, poor fit].

Consider `CN(C)C(=S)Nc1cccc(C(F)(F)F)c1`, for which the concentration at half-maximal activity (AC50) under setting [1] was 35.5 µM [falling, single point].

For the molecule `COc1ccc(N(C(=O)C2CCCCC2)C2C=CS(=O)(=O)C2)c(OC)c1` (configuration not stated), the AC50 under setting [1] was 4.11 µM [rising, full curve, poor fit].

Take `COc1ccc(NC(=S)SC)cc1OC`: under setting [1], the half-maximal activity concentration (AC50) is 32.6 µM [falling, partial curve, poor fit].

On to `Cc1ccc(S(=O)(=O)N2CCC(=O)N(CCOC(=O)Nc3cc(C)cc(C)c3)CC2)cc1`, for which the half-maximal activity concentration (AC50) under setting [2] is 23.1 µM [falling, partial curve, poor fit].

Turning to `COc1ccc(OC)c(/C=N/NC(=O)CC(=O)NC2CCCCC2)c1`, under setting [1], the half-maximal activity concentration (AC50) is 0.794 µM [falling, partial curve, poor fit].

Regarding `COc1cccc(-c2c(-c3cc(OC)cc(OC)c3)n(C)c3ccc(-c4cccc5[nH]ccc45)cc23)c1`, the concentration at half-maximal activity (AC50) under setting [1] was 0.92 µM [falling, full curve, poor fit].

For the molecule `CCOC(=O)CSc1nc2c(c(-c3ccc(C)o3)c1C#N)CCCC2`, the AC50 under setting [1] is 16.4 µM [falling, partial curve, poor fit].

Regarding `c1ccc(C(Cc2nc(-c3ccccn3)no2)c2ccccc2)cc1`, the AC50 under setting [1] is 7.31 µM [falling, partial curve].

Consider `Cn1nc(C(F)(F)F)c2cc(NC(=O)OCc3ccc(F)cc3)sc21`, for which, under setting [1], the AC50 was 3.55 µM [falling, single point].

Take `Cc1ccc(S(=O)(=O)N2CCN(C(=O)C3CC3C)CC2)c(C)c1` (configuration not stated): the AC50 under setting [1] is 16.4 µM [falling, partial curve, poor fit].

For `Cc1ccccc1OCCn1c(CCNC(=O)C(C)C)nc2ccccc21`, the AC50 under setting [1] was 11.6 µM [falling, partial curve, poor fit].

`O=C(CSCc1cnn(-c2ccccc2)c1-n1cccc1)NCc1cccs1`: the AC50 under setting [1] is 16.4 µM [falling, single point].

As to `Cc1cccc(NC(=S)NCCC(c2ccccc2)c2ccccc2)c1`, the AC50 under setting [1] is 20.6 µM [falling, single point].

Consider `Cc1ccc(N=Cc2c(O)ccc3ccccc23)cc1F`, for which the AC50 under setting [1] was 20.6 µM [falling, single point].

As to `Cc1ccc(CN2CCN(Cc3ccccc3)C(CCO)C2)s1` (configuration not stated), the concentration at half-maximal activity (AC50) under setting [1] was 12.6 µM [rising, partial curve, poor fit].

`CN=C(Nc1ccccc1)SC1CC(=O)N(c2cccc(OC)c2)C1=O` (configuration not stated): the concentration at half-maximal activity (AC50) under setting [1] is 15.8 µM [falling, partial curve, poor fit].

As to `O=C(N/N=C/c1cccc(OCC(=O)N2CCCC2)c1)C(=O)Nc1ccccc1F`, the AC50 under setting [1] was 25.9 µM [falling, partial curve, poor fit].

With `CCN1CC(CN(C)Cc2cn(-c3cccc(C)c3)nc2-c2cccc(F)c2)CC1=O` (configuration not stated), under setting [1], the half-maximal activity concentration (AC50) is 35.5 µM [falling, single point].

On to `CCCc1[nH]n(-c2nc3ccccc3s2)c(=O)c1C=NCCCOC`, for which, under setting [1], the concentration at half-maximal activity (AC50) is 12.6 µM [falling, partial curve, poor fit].

Take `COc1cc2c(cc1NC(=O)CCC(=O)O)oc1ccccc12`: under setting [1], the half-maximal activity concentration (AC50) is 10 µM [falling, partial curve, poor fit].

In the case of `Cc1ccc(Nc2nnc(SCC(=O)Nc3ccc(S(=O)(=O)N4CCOCC4)cc3)s2)cc1`, under setting [1], the AC50 is 0.00411 µM [falling, full curve, poor fit].

`C/C=C/C(=O)Nc1cccc(C2=NOC3(C2)C[C@@H](C(N)=O)N(C(=O)c2cc([N+](=O)[O-])cc([N+](=O)[O-])c2C)C3)c1` (some centres not stated): the AC50 under setting [1] is 1 µM [rising, full curve, poor fit].

For the molecule `O=C(N/N=C/c1ccsc1)c1ccc2c(c1)OCO2`, the AC50 under setting [1] is 7.31 µM [falling, partial curve].

On to `COc1cc2c(cc1OC)C(c1ccc(-c3ccc(Cl)cc3Cl)o1)=NCC2`, for which, under setting [1], the half-maximal activity concentration (AC50) is 12.6 µM [falling, partial curve, poor fit].

For the molecule `CC(C)c1nnc(NC(=O)c2cc3ccccc3o2)s1`, the AC50 under setting [1] was 1.26 µM [falling, full curve, poor fit].

Consider `CC(=O)NCC1CCCN(C(=O)c2ccc(OC3CCN(Cc4ccccn4)CC3)cc2)C1` (configuration not stated), for which the AC50 under setting [1] is 35.5 µM [rising, single point].

Take `O=S(=O)(c1cccc2cccnc12)N1CCN(Cc2ccc3c(c2)OCO3)CC1`: under setting [1], the AC50 was 22.4 µM [rising, single point].

Turning to `O=C(Cc1ccc(-n2c(=S)[nH]c3ccccc3c2=O)cc1)N1CCN(c2ccccc2)CC1`, the AC50 under setting [1] is 18.4 µM [rising, partial curve].

`Cn1cc(C(=O)Nc2ccc(F)c(F)c2)cn1`: the AC50 under setting [1] was 29.1 µM [rising, single point].

As for `C#CCOCCOCCOCCNc1nc(N2CCN(C(=O)CCCCCCCCCCNC(=O)Cn3cc(CCCCCN)nn3)CC2)nc(N2CCN(C(=O)CCCCCCCCCCNC(=O)Cn3cc(C[C@@H](C)O)nn3)CC2)n1`, under setting [1], the AC50 is 23.1 µM [rising, partial curve].

Consider `O=C(Oc1cccc(/C=N/NC(=O)c2ccccn2)c1)c1ccc([N+](=O)[O-])cc1`, for which the half-maximal activity concentration (AC50) under setting [1] was 11.2 µM [falling, single point].

With `Cc1onc(-c2ccccc2)c1C(=O)OCC(=O)c1ccccc1`, the AC50 under setting [1] is 6.51 µM [falling, single point].

Regarding `COc1cc(-c2cc(C(=O)N(C)Cc3ccccc3)c3ccccc3n2)cc(OC)c1OC`, under setting [1], the AC50 was 3.16 µM [rising, single point].

With `c1ccc(-c2csc(NNC3=NCCCCC3)n2)cc1`, the half-maximal activity concentration (AC50) under setting [1] is 4.11 µM [falling, partial curve, poor fit].

Consider `Fc1ccc(OCc2nc3ccccc3s2)cc1`, for which the half-maximal activity concentration (AC50) under setting [1] was 15.8 µM [falling, single point].

For `CN(C)c1ccc(/C=N/NC(=O)c2cnc3ccccc3c2)cc1`, the AC50 under setting [1] is 15.8 µM [falling, single point].
